Results published in publication doi:10.1101/2021.03.25.436271.
These are yes or no findings as the source states them, for the method shown. For some of these results: In cells and extracts the contact can be indirect. Some results given as binding are weak or reduced against the parent protein; the word gives no strength.

By UniProt entry, the sequences of proteins in these tests, tags left out. Residues count along the entry.
UniProt Q13158, whole entry: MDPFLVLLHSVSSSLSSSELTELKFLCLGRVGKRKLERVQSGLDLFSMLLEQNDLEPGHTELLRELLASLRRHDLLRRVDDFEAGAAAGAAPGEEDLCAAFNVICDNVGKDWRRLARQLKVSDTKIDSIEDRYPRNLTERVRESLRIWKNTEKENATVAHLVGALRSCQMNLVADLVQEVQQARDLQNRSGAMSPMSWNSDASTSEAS
UniProt P25445, 26-335: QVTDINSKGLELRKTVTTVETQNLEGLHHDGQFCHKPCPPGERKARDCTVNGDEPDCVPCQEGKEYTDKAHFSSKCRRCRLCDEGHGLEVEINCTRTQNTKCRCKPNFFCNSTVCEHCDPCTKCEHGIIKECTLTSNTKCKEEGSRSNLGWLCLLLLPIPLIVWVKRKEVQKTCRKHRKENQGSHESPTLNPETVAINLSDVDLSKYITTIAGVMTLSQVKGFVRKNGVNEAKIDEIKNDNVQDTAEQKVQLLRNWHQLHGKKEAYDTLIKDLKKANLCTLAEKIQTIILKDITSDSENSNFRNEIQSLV
UniProt Q9H1R3, whole entry: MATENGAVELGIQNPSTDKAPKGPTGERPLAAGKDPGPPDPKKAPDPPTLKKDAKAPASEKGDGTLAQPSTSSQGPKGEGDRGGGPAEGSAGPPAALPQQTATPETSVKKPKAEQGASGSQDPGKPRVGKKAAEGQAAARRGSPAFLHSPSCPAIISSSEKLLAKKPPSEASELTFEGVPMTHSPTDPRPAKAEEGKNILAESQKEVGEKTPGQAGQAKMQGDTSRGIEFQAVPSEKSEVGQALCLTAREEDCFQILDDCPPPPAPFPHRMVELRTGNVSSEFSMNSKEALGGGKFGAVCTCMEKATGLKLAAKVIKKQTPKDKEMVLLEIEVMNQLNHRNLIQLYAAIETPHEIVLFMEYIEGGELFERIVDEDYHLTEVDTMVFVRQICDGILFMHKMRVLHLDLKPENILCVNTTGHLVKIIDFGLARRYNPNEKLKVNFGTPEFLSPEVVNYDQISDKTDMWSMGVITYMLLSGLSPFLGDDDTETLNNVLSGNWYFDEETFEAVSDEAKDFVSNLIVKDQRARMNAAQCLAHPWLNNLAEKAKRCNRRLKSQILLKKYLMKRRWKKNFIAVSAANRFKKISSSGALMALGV

What was measured:
[1] = biological target: FADD-TAP (Fas-associated death domain protein with a C-terminal TAP affinity tag) (UniProt Q13158); assay: SEC
[2] = biological target: CD95 (Fas/Apo1) (human (endogenous in BJAB, Jurkat)) (UniProt P25445); assay: co-IP
[3] = biological target: Fas-associated death domain protein (FADD), native (human (endogenous in Jurkat, BJAB, MCF-7)) (UniProt Q13158); assay: co-IP
[4] = biological target: FADD-TAP (Fas-associated death domain protein with a C-terminal TAP affinity tag) (UniProt Q13158); assay: pull-down

Measured: binding

Myosin Light Chain Kinase 2 (MYLK2) (from UniProt Q9H1R3 1-596) (enzyme)
binds: all assays above
